Results are given in words; binding and its absence hold for the method and conditions named. Some binding calls cover weakened binding; strength is not graded here.
What was measured:
[1] = target: Aminopeptidase A (APA, EC 3.4.11.7) on cells (UniProt Q07075); test: competition of soluble peptide with phage binding to SK-RC-49/APA cells (not shown)
[2] = target: Immunocaptured APA (from SK-RC-49/APA cell lysate, on mAb RC38-coated microwells) (UniProt Q07075); test: phage binding to APA immunocaptured on RC38-coated microwells (not shown)

Amino acid sequences for entries named in this document (tags omitted).
UniProt Q07075: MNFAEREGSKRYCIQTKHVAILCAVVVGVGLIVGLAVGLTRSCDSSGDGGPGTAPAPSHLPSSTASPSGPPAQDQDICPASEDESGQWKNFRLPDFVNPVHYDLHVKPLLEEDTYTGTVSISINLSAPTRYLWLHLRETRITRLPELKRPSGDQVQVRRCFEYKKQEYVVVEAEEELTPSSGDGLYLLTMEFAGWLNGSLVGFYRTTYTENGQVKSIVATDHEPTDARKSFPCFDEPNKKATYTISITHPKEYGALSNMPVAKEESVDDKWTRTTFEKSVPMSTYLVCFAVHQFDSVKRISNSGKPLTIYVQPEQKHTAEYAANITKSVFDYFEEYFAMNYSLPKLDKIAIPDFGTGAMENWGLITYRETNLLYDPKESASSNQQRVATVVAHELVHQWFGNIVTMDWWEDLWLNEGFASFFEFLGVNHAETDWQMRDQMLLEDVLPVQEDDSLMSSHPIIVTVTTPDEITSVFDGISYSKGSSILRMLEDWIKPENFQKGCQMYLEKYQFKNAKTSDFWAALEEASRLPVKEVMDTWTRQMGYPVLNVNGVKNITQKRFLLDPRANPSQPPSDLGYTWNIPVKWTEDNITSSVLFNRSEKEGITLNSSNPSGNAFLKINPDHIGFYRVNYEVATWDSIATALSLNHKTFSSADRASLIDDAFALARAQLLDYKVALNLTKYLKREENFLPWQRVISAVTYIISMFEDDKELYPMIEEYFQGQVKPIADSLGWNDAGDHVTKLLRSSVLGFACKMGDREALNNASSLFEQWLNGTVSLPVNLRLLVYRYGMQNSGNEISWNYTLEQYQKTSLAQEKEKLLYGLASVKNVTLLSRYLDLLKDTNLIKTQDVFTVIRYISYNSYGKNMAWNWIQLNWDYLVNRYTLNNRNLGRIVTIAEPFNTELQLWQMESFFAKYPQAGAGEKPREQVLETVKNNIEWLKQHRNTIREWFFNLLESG

Row | Binder | binding [1] | binding [2]
1 | CPRECESIC (cyclic peptide, spontaneously cyclized in non-reducing conditions) [… (SEQ ID NO:123) soluble peptide] | binds | 
2 | CYNLCIRECESICGADGACWTWCADGCSRSC [phage displaying … (SEQ ID NO:125)] |  | binds
3 | CPKVCPRECESNC [phage displaying … (SEQ ID NO:127)] |  | binds
4 | CLGQCASICVNDC [phage displaying … (SEQ ID NO:126)] |  | binds

From EP2028187A1 (BOARD OF REGENTS, THE UNIVERSITY OF TEXAS SYSTEM, dated 2009)
